Reference: article PMC7002408
Results are given in words; binding and its absence hold for the method and conditions named. In cells and extracts the contact can be indirect. Binding can be weak; no strength is given. Tags and fused reporters may be left off the sequences shown.

How the values were obtained:
[1] = target: CFP^C-OsTb2 (rice (Oryza sativa)); test: split reporter; YFP^N and CFP^C fusions cotransformed into protoplasts (PEG-mediated), 28 °C in the dark overnight, confocal microscopy; AHL22-mRFP as nuclear marker; GUS fusions as negative controls
[2] = target: GFP-OsTb2 (rice (Oryza sativa)); test: co-IP; protein extracts of rice protoplasts with GFP-OsTb2 and MYC-OsTb1, precipitated with anti-GFP agarose beads overnight, Western blot with anti-GFP and anti-MYC

| binding [1] | binding [2] | Binder |
| --- | --- | --- |
| binds |  | YFP^N-OsTb1 (protein, UniProt Q8LN68 1-388) MLPFFDSPSPMDIPLYQQLQLTPPSPKPDHHHHHHSTFFYYHHHPPPSPSFPSFPSPAAATIASPSPAMHPFMDLELEPHGQQLAAAEEDGAGGQGVDAGVPFGVDGAAAAAAARKDRHSKISTAGGMRDRRMRLSLDVARKFFALQDMLGFDKASKTVQWLLNMSKAAIREIMSDDASSVCEEDGSSSLSVDGKQQQHSNPADRGGGAGDHKGAAHGHSDGKKPAKPRRAAANPKPPRRLANAHPVPDKESRAKARERARERTKEKNRMRWVTLASAISVEAATAAAAAGEDKSPTSPSNNLNHSSSTNLVSTELEDGSSSTRHNGVGVSGGRMQEISAASEASDVIMAFANGGAYGDSGSYYLQQQHQQDQWELGGVVYANSRHYC |
|  | binds | MYC-OsTb1 (protein, UniProt Q8LN68 1-388) MLPFFDSPSPMDIPLYQQLQLTPPSPKPDHHHHHHSTFFYYHHHPPPSPSFPSFPSPAAATIASPSPAMHPFMDLELEPHGQQLAAAEEDGAGGQGVDAGVPFGVDGAAAAAAARKDRHSKISTAGGMRDRRMRLSLDVARKFFALQDMLGFDKASKTVQWLLNMSKAAIREIMSDDASSVCEEDGSSSLSVDGKQQQHSNPADRGGGAGDHKGAAHGHSDGKKPAKPRRAAANPKPPRRLANAHPVPDKESRAKARERARERTKEKNRMRWVTLASAISVEAATAAAAAGEDKSPTSPSNNLNHSSSTNLVSTELEDGSSSTRHNGVGVSGGRMQEISAASEASDVIMAFANGGAYGDSGSYYLQQQHQQDQWELGGVVYANSRHYC |
